From patent US5646000A, “Compounds and methods for identifying activated platelets” (Merck & Co., Inc., priority 1994, dated 1997)
The match of structure and compound is tentative.

By UniProt entry, the sequences of proteins in these tests, tags left out. Residues count along the entry.
UniProt P05106, 27-788 limits assumed: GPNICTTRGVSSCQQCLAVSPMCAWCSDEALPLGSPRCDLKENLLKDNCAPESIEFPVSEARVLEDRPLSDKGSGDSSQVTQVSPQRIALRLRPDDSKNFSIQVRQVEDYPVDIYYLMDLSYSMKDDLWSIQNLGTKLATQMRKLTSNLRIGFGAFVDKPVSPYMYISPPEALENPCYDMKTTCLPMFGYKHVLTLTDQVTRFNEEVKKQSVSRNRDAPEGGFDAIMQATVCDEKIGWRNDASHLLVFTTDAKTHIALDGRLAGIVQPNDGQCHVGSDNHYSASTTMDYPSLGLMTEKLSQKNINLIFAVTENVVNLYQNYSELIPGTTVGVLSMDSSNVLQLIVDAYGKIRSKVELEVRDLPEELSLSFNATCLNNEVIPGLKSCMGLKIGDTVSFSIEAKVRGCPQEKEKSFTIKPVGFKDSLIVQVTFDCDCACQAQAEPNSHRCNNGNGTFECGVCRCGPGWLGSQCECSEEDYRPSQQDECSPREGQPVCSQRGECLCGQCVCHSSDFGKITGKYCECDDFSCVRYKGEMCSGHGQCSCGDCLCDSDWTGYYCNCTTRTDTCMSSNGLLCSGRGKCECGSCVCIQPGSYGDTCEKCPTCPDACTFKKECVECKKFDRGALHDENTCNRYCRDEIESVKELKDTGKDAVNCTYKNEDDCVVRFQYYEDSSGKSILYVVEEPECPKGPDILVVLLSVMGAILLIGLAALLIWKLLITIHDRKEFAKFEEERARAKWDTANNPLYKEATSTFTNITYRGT
UniProt P08514, 32-887 limits assumed: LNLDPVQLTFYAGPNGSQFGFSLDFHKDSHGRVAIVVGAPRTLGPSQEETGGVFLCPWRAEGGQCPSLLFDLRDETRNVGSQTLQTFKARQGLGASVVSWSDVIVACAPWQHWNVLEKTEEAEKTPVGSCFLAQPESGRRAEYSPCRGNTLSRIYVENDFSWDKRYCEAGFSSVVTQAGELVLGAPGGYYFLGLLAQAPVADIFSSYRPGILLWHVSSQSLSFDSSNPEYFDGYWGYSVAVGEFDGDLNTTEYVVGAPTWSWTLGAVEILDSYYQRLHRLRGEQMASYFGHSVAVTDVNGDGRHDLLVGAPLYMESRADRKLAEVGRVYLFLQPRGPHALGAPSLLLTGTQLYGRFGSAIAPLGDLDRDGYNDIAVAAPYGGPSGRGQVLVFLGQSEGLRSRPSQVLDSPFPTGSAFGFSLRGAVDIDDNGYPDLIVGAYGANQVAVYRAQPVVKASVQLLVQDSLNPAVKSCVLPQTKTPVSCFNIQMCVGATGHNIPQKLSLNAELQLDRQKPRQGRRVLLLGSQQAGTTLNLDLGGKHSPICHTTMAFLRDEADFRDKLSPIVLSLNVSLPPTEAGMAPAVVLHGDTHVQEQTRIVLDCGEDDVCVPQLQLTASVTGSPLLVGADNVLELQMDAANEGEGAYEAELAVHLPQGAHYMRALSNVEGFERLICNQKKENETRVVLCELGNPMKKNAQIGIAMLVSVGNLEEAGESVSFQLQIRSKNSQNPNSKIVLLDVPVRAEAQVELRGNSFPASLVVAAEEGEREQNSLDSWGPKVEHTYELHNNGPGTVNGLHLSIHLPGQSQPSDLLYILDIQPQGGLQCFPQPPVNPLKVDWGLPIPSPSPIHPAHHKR
UniProt P08514, 891-1039 partner limits assumed: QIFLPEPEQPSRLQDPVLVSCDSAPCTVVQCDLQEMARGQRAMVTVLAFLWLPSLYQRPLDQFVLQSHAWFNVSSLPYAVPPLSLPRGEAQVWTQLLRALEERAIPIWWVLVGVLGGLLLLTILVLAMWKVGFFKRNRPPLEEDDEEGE

Assays:
[1] = system: ADP-stimulated platelets; experiment: Fibrinogen Receptor Antagonist Assay: ADP-stimulated platelet aggregation (gel-filtered human platelets); details: read-out: IC50 (nM) (aggregation); gel-filtered human platelets 2×10^8 per ml, fibrinogen 100 μg/ml, Ca^2+ 1 mM, 10 μM ADP, 37° C.
[2] = target: inactive form of GP IIb/IIIa (unactivated GP IIb/IIIa) (Homo sapiens, UniProt P05106+P08514); experiment: Fluorescence displacement of probe 2-8 from inactive (unactivated) form of GP IIb/IIIa; details: read-out: Ki (nM) (unactivated GP IIb/IIIa); unactivated GP IIb/IIIa (Table 1)

Question: How did the IC50 [1] turn out when CC(=O)N[C@H]1CSSC[C@@H](C(=O)O)NC(=O)[C@H](CC(=O)O)NC(=O)CNC(=O)[C@H](Cc2ccc(CN)cc2)NC(=O)[C@H]2N(CSC2(C)C)C(=O)[C@H](CC(N)=O)NC1=O was run?
Answer: 23 nM

Question: And the Ki [2]?
Answer: 3100 nM
